Results are given in words; binding and its absence hold for the method and conditions named. Binding seen in cells or lysates may run through a third protein. Some results given as binding are weak or reduced against the parent protein; the word gives no strength.
Target: T1, endogenous AARS2 (mouse cells) (mouse (endogenous in C2C12 and in mouse primary myoblasts)) (UniProt Q14CH7)
T1 sequence: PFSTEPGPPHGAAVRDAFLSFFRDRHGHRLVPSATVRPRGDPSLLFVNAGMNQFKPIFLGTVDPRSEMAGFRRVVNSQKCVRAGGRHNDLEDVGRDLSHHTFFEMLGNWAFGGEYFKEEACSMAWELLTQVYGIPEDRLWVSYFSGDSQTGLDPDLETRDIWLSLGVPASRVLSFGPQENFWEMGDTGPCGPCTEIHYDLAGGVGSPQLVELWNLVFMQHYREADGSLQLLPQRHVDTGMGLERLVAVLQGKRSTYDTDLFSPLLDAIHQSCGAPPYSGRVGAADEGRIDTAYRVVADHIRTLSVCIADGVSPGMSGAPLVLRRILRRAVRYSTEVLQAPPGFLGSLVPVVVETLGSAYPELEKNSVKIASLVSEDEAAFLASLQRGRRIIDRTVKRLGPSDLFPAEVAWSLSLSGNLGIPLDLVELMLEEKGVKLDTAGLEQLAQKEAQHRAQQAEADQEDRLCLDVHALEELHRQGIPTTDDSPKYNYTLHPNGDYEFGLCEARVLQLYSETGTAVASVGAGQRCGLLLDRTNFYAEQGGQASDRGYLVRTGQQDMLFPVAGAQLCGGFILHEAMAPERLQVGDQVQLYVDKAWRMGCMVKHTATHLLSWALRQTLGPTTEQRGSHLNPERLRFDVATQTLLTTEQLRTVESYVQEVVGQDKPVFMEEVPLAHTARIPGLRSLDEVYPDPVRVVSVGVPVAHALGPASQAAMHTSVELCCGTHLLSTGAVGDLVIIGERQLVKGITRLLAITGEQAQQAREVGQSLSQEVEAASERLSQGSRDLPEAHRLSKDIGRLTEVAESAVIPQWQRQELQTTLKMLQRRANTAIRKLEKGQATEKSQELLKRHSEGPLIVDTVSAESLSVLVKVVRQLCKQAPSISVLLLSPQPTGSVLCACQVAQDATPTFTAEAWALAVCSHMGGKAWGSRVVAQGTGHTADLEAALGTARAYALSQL
Test: co-IP; endogenous proteins in mouse primary myoblasts (Supplementary Fig. S1k)

By UniProt entry, the sequences of proteins in these tests, tags left out.
UniProt P40338: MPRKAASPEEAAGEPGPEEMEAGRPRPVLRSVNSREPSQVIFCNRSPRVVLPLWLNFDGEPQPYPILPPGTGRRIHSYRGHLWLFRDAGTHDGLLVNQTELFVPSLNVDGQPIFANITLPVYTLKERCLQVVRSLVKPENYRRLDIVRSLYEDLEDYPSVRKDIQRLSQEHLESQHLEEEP
UniProt Q91YE3: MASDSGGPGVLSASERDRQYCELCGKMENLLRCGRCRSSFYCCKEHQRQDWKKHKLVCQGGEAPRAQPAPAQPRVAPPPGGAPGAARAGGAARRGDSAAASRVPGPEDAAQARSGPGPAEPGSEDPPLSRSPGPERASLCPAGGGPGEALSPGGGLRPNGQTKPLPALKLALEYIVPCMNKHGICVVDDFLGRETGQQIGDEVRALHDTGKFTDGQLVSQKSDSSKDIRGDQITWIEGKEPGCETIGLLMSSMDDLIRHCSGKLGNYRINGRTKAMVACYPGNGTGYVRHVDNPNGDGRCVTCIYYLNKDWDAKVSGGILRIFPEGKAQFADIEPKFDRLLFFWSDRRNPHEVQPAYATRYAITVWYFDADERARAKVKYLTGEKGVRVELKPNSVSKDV

Substance	binding
endogenous VHL (from UniProt P40338 1-181)	binds
endogenous PHD2 (from UniProt Q91YE3 1-400) (enzyme)	binds

Source: paper PMC10770133
